No constants are given. Whether binding was seen depends on the method and setting. Binding seen in cells or lysates may run through a third protein.
Assays:
[1] = molecular target: VPS13D (UniProt Q5THJ4); assay: co-IP
[2] = molecular target: BLTP2 (UniProt Q14667); assay: co-IP

Amino acid sequences for entries named in this document (tags omitted).
UniProt Q5THJ4: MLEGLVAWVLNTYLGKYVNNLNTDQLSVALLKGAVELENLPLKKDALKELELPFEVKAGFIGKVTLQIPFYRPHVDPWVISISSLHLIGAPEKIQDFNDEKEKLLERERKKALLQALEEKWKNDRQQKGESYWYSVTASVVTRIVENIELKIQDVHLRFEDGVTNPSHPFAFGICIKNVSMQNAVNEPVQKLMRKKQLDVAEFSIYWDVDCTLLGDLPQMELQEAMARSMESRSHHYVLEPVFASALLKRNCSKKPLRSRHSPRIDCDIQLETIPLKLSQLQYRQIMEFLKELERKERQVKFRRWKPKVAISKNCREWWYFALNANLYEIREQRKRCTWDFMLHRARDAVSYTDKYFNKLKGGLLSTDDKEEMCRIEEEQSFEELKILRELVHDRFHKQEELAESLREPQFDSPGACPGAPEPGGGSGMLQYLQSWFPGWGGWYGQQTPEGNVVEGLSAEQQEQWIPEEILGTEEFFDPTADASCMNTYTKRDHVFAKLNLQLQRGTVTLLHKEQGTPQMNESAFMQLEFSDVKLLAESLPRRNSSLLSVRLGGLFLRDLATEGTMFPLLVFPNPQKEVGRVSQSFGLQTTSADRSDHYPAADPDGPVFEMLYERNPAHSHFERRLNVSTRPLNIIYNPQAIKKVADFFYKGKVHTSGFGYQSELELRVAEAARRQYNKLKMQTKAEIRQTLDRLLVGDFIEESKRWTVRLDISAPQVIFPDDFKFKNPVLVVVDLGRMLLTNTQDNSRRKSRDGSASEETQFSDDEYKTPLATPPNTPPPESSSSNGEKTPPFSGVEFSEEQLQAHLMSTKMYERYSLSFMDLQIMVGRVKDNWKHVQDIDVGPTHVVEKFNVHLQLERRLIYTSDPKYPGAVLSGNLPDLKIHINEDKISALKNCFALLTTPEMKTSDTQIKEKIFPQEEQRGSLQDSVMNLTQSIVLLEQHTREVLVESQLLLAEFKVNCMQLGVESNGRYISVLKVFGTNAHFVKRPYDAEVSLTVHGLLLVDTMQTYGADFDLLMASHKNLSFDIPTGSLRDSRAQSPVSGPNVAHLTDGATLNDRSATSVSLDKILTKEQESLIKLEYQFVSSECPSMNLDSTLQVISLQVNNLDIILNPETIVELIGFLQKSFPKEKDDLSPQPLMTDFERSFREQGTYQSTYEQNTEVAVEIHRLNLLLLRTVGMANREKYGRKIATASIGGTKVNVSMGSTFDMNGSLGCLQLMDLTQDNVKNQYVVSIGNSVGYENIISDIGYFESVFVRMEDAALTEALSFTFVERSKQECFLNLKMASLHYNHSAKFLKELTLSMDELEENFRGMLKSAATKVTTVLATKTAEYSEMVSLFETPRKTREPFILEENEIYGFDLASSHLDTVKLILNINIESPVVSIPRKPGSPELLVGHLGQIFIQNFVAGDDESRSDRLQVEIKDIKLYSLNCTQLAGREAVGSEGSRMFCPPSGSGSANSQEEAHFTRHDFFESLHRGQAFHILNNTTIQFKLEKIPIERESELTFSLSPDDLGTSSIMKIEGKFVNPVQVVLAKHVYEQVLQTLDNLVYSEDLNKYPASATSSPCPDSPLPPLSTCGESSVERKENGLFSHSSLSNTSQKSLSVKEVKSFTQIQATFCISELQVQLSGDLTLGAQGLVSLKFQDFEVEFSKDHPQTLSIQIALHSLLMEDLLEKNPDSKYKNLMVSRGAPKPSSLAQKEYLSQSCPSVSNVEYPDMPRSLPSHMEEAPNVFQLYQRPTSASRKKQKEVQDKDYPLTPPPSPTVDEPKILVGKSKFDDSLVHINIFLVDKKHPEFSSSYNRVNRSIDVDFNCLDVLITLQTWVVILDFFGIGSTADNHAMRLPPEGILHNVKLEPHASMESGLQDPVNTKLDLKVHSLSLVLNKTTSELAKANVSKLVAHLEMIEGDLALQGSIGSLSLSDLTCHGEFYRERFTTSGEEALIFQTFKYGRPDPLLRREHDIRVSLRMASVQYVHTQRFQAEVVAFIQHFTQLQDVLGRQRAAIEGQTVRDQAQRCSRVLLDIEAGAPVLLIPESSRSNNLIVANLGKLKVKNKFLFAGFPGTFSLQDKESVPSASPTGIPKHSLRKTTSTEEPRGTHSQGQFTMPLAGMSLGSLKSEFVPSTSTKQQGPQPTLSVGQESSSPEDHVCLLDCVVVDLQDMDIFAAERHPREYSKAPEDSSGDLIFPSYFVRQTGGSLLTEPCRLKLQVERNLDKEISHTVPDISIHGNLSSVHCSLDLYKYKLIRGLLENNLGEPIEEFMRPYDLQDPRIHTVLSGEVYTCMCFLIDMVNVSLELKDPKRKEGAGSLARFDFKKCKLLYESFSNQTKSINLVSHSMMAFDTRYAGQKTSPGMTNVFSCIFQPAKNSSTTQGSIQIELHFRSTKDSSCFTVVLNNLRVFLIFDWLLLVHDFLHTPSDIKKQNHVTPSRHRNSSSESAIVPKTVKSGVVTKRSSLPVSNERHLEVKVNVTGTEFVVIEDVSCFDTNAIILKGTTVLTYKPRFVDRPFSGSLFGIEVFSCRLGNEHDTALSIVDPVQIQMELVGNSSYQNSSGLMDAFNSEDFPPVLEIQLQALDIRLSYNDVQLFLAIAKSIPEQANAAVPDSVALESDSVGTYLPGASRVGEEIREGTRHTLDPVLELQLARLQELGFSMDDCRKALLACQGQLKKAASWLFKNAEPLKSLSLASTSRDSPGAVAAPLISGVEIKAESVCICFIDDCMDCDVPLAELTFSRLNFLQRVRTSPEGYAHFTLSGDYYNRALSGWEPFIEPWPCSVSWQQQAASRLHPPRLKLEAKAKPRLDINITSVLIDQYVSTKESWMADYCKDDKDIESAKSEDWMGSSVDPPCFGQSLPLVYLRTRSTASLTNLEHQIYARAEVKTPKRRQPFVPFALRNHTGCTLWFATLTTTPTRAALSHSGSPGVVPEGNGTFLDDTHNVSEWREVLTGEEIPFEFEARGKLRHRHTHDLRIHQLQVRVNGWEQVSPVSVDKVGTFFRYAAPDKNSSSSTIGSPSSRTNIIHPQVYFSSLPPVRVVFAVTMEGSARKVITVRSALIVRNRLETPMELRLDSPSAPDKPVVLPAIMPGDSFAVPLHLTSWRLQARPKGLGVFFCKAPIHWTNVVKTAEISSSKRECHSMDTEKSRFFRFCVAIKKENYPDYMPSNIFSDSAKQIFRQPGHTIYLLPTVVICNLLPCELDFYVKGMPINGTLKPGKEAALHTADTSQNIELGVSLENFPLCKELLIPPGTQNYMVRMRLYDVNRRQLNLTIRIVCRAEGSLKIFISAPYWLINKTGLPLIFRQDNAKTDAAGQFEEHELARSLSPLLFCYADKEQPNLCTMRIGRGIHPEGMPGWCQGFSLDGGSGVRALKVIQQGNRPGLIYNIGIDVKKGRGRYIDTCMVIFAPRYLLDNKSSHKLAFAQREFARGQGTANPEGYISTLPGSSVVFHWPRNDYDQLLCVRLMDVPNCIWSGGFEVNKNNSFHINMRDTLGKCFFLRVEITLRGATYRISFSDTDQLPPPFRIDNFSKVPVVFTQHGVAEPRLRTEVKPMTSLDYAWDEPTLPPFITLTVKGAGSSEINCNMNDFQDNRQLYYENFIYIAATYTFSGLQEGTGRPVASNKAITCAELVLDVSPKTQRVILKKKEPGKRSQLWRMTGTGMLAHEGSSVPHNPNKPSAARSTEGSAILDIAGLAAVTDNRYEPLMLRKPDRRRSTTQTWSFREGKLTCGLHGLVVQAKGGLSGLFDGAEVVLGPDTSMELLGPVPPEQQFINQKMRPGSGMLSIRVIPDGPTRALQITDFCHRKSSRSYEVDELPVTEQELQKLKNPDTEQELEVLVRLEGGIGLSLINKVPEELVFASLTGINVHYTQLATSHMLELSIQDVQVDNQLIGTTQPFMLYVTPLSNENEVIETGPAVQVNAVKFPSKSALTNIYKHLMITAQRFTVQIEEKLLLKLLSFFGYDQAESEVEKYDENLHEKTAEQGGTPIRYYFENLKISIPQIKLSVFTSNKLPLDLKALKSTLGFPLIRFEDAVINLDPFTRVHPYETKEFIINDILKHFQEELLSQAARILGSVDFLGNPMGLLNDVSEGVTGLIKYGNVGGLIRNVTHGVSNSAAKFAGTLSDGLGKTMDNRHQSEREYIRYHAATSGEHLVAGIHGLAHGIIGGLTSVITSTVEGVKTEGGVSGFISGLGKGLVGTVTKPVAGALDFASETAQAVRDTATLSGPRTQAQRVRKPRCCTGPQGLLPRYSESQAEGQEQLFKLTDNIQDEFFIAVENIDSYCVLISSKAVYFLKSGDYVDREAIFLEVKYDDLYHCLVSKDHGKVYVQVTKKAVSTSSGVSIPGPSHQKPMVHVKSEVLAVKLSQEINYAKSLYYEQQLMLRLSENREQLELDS
UniProt Q14318: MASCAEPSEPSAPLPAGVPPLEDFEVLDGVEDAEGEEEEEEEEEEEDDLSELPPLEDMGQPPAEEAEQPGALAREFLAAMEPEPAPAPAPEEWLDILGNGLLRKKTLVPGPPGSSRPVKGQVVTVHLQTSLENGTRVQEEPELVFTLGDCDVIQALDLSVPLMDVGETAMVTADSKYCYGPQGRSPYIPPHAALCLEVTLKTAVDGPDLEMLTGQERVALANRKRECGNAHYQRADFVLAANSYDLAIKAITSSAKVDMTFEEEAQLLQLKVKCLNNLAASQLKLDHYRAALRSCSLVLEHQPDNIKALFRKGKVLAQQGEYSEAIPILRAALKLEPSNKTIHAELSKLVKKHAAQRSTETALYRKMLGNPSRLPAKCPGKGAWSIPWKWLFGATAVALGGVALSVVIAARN

binding [1]: no binding
binding [2]: no binding
Substance: endogenous FKBP8 (from UniProt Q14318 1-412)
